In the supplement of paper PMC7666118:
The list shows a part of the results.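 How the source made its calls: active = dose-dependent thermal stabilisation significant by F-test of dose-response against flat model at 10% FDR; inactive = not significant.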

Sequences of proteins named here, by UniProt entry; tags and fusion partners are left off. A change or cut given only in a name is not applied to a line headed by its entry.
UniProt Q93100: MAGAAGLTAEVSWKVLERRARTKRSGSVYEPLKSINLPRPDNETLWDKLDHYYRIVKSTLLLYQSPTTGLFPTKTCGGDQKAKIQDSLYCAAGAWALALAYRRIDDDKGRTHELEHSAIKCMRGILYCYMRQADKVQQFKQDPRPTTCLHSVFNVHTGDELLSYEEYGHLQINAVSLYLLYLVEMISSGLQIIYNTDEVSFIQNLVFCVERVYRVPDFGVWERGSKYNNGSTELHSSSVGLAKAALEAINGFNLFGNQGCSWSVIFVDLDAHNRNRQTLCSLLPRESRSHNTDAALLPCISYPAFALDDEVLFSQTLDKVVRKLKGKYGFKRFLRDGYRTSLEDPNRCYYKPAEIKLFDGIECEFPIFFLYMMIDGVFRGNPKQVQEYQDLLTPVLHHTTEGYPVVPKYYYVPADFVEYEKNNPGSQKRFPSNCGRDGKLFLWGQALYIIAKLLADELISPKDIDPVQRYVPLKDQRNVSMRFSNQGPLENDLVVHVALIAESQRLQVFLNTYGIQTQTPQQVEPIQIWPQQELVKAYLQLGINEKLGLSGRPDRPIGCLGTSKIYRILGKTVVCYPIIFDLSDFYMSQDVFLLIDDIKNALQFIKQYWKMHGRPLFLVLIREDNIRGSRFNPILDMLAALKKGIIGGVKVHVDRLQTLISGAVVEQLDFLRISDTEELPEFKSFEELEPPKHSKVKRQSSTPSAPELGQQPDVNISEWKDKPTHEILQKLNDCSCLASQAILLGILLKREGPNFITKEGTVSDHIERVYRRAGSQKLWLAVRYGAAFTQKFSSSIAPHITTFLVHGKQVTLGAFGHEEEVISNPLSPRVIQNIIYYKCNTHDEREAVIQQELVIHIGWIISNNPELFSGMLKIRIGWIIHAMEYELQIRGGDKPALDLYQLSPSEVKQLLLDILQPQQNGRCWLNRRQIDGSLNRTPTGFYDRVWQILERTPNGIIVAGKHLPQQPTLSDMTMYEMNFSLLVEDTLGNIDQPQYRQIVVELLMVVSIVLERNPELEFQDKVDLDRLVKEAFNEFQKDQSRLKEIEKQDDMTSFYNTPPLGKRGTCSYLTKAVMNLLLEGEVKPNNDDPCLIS
UniProt Q9NQ66: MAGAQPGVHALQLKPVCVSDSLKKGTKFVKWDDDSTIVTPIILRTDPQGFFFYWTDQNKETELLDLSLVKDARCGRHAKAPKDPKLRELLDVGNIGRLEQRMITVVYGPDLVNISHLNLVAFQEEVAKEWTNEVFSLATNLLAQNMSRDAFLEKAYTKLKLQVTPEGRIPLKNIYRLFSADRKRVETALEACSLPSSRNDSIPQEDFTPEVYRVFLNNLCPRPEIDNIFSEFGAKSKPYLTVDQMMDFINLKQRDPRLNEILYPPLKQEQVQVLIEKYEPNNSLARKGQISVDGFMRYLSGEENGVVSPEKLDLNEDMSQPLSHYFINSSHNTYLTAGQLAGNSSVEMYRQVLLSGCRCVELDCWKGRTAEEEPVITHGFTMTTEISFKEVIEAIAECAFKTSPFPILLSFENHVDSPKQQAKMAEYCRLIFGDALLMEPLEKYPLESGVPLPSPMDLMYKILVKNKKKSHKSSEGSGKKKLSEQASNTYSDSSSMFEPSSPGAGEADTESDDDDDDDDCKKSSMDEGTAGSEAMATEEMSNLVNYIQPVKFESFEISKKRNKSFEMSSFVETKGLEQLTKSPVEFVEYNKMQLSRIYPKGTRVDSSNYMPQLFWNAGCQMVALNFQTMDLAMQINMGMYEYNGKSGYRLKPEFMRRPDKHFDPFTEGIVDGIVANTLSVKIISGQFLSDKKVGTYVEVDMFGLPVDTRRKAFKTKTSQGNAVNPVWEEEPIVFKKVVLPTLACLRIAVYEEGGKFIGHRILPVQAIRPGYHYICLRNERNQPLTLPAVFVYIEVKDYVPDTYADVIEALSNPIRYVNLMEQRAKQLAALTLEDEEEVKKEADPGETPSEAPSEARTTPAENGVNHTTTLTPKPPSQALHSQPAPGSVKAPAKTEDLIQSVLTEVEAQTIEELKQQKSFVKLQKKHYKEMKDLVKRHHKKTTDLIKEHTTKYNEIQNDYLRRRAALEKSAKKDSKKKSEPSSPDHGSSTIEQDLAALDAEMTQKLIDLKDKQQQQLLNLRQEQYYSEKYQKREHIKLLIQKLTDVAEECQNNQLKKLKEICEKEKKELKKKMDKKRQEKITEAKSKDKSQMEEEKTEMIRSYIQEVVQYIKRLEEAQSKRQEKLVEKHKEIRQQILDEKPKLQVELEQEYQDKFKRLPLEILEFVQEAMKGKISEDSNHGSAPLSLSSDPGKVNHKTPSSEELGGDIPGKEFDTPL
UniProt P29590: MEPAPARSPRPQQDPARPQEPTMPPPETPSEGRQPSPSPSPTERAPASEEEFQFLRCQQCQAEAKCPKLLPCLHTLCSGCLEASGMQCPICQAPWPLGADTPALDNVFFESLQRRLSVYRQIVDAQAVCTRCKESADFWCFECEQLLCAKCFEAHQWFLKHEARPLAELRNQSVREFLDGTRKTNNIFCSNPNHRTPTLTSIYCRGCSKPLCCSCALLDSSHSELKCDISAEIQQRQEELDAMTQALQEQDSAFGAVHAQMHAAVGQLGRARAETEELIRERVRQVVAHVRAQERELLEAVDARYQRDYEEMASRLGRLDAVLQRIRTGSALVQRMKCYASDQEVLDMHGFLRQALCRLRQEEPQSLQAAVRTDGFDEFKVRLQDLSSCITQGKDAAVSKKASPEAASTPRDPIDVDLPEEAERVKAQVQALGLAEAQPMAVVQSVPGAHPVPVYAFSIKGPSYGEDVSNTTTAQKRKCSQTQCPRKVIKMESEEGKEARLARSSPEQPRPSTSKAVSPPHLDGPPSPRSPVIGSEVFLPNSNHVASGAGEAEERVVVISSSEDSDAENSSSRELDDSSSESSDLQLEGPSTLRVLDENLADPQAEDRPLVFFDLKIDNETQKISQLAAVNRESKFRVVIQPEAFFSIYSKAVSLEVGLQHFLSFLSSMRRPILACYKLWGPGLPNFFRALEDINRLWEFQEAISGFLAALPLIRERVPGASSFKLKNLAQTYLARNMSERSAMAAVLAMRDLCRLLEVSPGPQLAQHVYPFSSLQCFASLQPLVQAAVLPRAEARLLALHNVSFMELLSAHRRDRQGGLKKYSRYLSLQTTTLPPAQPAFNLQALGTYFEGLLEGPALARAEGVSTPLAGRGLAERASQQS
UniProt Q16342: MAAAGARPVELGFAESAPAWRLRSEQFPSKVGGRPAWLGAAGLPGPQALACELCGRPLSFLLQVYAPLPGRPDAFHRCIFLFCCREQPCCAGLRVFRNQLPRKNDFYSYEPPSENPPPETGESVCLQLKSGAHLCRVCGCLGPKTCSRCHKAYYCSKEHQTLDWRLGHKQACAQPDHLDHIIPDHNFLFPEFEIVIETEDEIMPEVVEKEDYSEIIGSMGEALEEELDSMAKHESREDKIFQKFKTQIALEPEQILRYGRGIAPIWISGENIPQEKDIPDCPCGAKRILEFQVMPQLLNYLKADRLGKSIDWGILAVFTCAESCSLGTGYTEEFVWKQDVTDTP
UniProt Q5JVF3: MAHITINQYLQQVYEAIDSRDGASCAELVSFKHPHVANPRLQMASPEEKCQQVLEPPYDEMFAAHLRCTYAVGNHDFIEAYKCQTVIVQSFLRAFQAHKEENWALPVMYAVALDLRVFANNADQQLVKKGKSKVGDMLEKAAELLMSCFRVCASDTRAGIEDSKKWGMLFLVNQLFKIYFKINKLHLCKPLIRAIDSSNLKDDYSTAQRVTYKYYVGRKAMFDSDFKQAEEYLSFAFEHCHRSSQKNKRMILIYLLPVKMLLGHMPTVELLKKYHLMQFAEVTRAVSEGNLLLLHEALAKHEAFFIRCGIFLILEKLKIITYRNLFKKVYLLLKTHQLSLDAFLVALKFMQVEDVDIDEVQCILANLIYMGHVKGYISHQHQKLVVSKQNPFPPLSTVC
UniProt P30048: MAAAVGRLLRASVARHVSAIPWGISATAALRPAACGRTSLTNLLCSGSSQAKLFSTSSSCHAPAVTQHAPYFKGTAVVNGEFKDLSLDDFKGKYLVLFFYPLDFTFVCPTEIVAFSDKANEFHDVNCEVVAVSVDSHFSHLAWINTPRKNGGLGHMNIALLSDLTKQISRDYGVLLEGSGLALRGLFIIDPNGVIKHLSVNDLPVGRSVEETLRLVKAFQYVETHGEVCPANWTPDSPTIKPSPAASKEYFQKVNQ
UniProt P30044: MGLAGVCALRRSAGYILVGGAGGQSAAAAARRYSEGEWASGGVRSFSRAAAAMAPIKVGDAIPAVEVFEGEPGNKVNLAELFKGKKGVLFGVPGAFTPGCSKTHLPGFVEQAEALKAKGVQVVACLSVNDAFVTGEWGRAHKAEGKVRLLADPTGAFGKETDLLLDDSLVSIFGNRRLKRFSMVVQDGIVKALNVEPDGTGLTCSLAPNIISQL
UniProt O15355: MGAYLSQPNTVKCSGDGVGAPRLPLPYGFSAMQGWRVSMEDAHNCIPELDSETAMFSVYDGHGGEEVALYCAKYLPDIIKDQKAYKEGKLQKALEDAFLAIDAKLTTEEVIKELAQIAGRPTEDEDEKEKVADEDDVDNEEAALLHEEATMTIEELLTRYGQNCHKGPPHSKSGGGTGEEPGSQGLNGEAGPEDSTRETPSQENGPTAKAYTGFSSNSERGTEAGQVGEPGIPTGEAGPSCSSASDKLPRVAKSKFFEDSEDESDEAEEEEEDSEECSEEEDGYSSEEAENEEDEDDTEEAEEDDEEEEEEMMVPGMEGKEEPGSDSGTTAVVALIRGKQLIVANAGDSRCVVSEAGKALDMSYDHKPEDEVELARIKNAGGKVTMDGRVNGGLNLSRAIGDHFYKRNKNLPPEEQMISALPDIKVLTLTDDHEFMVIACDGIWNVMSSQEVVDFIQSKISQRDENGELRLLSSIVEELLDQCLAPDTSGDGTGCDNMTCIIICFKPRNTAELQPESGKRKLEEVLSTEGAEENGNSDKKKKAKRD
UniProt Q9UBT6: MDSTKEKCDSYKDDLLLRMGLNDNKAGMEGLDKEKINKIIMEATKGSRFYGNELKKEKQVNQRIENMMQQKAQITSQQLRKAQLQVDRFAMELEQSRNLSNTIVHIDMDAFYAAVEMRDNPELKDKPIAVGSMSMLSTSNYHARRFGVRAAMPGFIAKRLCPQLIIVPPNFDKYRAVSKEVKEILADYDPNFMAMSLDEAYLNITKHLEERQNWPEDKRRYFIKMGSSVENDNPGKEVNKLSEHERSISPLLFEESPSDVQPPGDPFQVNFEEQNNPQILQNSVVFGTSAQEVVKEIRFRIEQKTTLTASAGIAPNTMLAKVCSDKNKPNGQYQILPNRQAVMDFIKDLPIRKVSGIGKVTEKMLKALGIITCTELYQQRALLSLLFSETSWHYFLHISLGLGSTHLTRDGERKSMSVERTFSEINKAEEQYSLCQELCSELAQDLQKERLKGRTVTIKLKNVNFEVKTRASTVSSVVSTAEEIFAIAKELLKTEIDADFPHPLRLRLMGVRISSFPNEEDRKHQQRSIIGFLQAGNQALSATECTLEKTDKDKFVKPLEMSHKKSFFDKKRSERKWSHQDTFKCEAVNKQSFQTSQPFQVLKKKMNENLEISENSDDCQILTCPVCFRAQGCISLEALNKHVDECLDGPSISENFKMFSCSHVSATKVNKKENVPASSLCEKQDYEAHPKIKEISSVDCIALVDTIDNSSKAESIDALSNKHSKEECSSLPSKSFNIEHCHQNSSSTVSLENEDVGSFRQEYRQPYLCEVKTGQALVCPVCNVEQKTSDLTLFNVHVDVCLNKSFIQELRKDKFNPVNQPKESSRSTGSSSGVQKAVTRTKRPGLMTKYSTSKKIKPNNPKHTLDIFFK
UniProt Q9H2J4: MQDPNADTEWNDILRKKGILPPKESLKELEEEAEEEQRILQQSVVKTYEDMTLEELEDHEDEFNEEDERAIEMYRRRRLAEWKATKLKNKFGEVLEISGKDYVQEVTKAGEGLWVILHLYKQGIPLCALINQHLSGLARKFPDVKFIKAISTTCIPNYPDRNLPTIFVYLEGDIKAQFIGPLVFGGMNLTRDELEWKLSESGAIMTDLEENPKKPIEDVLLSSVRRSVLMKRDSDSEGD
UniProt Q06203, whole entry: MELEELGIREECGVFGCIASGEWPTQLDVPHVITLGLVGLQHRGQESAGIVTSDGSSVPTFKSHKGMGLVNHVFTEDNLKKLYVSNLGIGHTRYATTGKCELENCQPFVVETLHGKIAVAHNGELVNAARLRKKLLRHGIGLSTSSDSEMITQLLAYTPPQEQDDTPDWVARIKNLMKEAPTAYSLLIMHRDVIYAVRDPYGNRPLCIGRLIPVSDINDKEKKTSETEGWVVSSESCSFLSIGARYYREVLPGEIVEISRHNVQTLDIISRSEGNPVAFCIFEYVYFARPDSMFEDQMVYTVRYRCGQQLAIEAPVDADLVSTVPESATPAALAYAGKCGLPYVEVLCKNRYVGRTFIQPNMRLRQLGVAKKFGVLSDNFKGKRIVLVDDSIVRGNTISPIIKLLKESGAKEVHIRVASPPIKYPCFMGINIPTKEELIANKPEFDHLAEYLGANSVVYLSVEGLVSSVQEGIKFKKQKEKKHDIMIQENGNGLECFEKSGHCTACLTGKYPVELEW

Each target was assayed with Nc1nc2c(ncn2[C@@H]2O[C@H](COP(=O)(O)OP(=O)(O)OP(=O)(O)O)[C@@H](O)[C@H]2O)c(=O)[nH]1 (assay: dose-dependent thermal stabilisation call (2D-TPP, DLPTP, 10% FDR) (binary (1 = stabilised)); higher = stabilised by the compound). Details: system: Jurkat gel-filtered lysate; concentration range 1-500 µM.

| Target | dose-dependent thermal stabilisation call |
| --- | --- |
| POM121 (UniProt Q96HA1) | inactive: 0 |
| PHKB (UniProt Q93100) | inactive: 0 |
| PLCB1 (UniProt Q9NQ66) | active: 1 |
| PML (UniProt P29590) | active: 1 |
| PFAS (UniProt O15067) | inactive: 0 |
| PDCD2 (UniProt Q16342) | active: 1 |
| PPP4R1 (UniProt Q8TF05) | inactive: 0 |
| PPIL4 (UniProt Q8WUA2) | inactive: 0 |
| PMPCA (UniProt Q10713) | active: 1 |
| PLCG2 (UniProt P16885) | active: 1 |
| PCID2 (UniProt Q5JVF3) | active: 1 |
| PRDX3 (UniProt P30048) | inactive: 0 |
| PGM1 (UniProt P36871) | inactive: 0 |
| PDLIM2 (UniProt Q96JY6) | inactive: 0 |
| PDIA6 (UniProt Q15084) | inactive: 0 |
| PPP2R1A (UniProt P30153) | inactive: 0 |
| PRCP (UniProt P42785) | inactive: 0 |
| PRDX5 (UniProt P30044) | inactive: 0 |

| Target | dose-dependent thermal stabilisation call |
| --- | --- |
| PHAX (UniProt Q9H814) | inactive: 0 |
| PCNT (UniProt O95613) | inactive: 0 |
| PCCB (UniProt P05166) | inactive: 0 |
| POLE2 (UniProt P56282) | inactive: 0 |
| PPM1G (UniProt O15355) | inactive: 0 |
| POLK (UniProt Q9UBT6) | inactive: 0 |
| POLA1 (UniProt P09884) | inactive: 0 |
| PPP1R8 (UniProt Q12972) | inactive: 0 |
| PJA2 (UniProt O43164) | inactive: 0 |
| PDIA3 (UniProt P30101) | inactive: 0 |
| PPIL2 (UniProt Q13356) | active: 1 |
| PDCD6 (UniProt O75340) | inactive: 0 |
| PPM1E (UniProt Q8WY54) | inactive: 0 |
| PDCL3 (UniProt Q9H2J4) | inactive: 0 |
| PKN2 (UniProt Q16513) | active: 1 |
| PPAT (UniProt Q06203) | inactive: 0 |
| PPP2R5A (UniProt Q15172) | inactive: 0 |
| POGZ (UniProt Q7Z3K3) | inactive: 0 |

Single values from above.
Under dose-dependent thermal stabilisation call, PCCB (UniProt P05166) reads inactive: 0
Under dose-dependent thermal stabilisation call, PPAT (UniProt Q06203) reads inactive: 0
Under dose-dependent thermal stabilisation call, PCNT (UniProt O95613) reads inactive: 0
